The text below walks through data of patent US20250333531A1.

Protein sequences, listed by entry. Tags and fused reporters are not part of them.
UniProt P11049: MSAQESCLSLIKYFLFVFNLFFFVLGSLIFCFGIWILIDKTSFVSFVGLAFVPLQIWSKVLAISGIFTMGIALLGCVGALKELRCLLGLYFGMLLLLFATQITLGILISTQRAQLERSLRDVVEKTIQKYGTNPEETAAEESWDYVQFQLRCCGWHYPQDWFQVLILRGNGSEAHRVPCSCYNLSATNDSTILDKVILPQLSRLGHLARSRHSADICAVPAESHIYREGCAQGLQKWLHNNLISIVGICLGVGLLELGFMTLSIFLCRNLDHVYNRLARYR

The target in test [1] is human CD37 (human) (UniProt P11049). As to the kind of experiment: flow cytometry on Ramos cells (Example 4). (In general: In flow cytometry, cells or beads pass a laser one at a time.)
Test [2] shares this target. As to the kind of experiment: flow cytometry on Ramos cells.

No constants are given. Whether binding was seen depends on the method and setting. Some entries that bind do so weakly or less than the wild type.

B1: HC1 + LC1 with 14 CBM (antibody, human IgG1, V domains shown)
VH: QIQLVQSGAELVKPGASVKVSCKASGYSFTDYNMYWVKQAPGQRLEWIGYIDPYNGDTTYNQKFKGRATLTVDTSASTAYIELSSLRSEDTAVYYCARSPYGHYAMDYWGQGTLVTVSS
VL: DIQMTQSPSSLSTSVGDRVTITCKASQDVSTAVDWYQQKPGKSPKLLINWASTRHTGVPSRFSGSGSGTDYTLTISSMQPEDFATYYCRQHYSTPFTFGQGTKLEIK
For B1, the binding entry with human CD37 (human) [1] and with human CD37 (human) [2] was “binds” throughout.
